From article PMC8608845
Results are given in words; binding and its absence hold for the method and conditions named. In cells and extracts the contact can be indirect. Some entries that bind do so weakly or less than the wild type. Where a sequence is shown, tags or fusion partners need not be part of it.

Biological target: T1, TRIB1-glutathione-S-transferase fusion protein (UniProt Q8K4K4)
T1 sequence: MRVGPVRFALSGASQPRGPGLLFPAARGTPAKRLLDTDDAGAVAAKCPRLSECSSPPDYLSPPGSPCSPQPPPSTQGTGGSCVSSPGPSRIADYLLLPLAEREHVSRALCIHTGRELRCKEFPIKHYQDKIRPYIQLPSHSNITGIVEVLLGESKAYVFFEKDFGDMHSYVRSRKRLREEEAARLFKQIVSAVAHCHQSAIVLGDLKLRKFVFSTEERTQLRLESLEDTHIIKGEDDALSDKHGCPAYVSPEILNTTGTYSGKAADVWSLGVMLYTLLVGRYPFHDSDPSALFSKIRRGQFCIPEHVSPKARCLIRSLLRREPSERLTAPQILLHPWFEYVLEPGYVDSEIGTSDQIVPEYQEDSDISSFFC
Test: pull-down; GST-tagged Trib1 held on GST agarose gel, incubated with extracted BAT protein at a low temperature overnight, washed five to six times, eluted by boiling in loading buffer, Western blot with UQCRC2 antibody (the paper calls it co-immunoprecipitation); only the target purified

binding: binds
B1: UQCRC2, mitochondrial respiratory chain complex III subunit (protein, UniProt Q9DB77 15-453)
chain: SLKVAPKVKTSAAPGGVPLQPQDLEFTKLPNGLVIASLENYAPLSRIGLFVKAGSRYEDSNNLGTSHLLRLASSLTTKGASSFKITRGIEAVGGKLSVTATRENMAYTVEGIRSDIEILMEFLLNVTTAPEFRRWEVAALRSQLKIDKAVAFQNSQTRIIENLHDVAYKNALANPLYCPDYRMGKITSEELHYFVQNHFTSARMALVGLGVSHSVLKQVAEQFLNMRGGLGLAGAKAKYRGGEIREQNGDNLVHAAIVAESAAIGNAEANAFSVLQHLLGAGPHIKRGNNTTSLLSQSVAKGSHQPFDVSAFNASYSDSGLFGIYTISQAAAAGEVINAAYNQVKAVAQGNLSSADVQAAKNKLKAGYLMSVETSEGFLSEIGSQALAAGSYMPPSTVLQQIDSVADADVVKAAKKFVSGKKSMAASGNLGHTPFLDEL
